Some results were stated once for a whole list of compounds, not compound by compound.
Tests used:
Format in all cases: in vivo
Plutella xylostella = assay: Insecticidal test on Plutella xylostella (dip of Chinese cabbage seedlings with laid eggs); settings: 500 ppm, Chinese cabbage seedlings with laid eggs dipped about 30 seconds, 25° C., 6 days after dip treatment; criteria of Test Example 1
From the text: Insecticidal Test on Plutella xylostella
Adults of Plutella xylostella were released onto Chinese cabbage seedlings and allowed to lay eggs thereon. At 2 days after the release of the adults, the Chinese cabbage seedlings with laid eggs were dipped for about 30 seconds in agrochemical dispersions diluted to 500 ppm, each of which contained a different kind of oxime group-containing condensed heterocyclic compound represented by the general formula (1) of the present invention as an active ingredient. After air-dried, the seedlings were kept in a thermostatic chamber at 25° C. At 6 days after the dip treatment, the number of hatched larvae per plot was counted, the mortality rate was calculated according to the formula shown below, and the insecticidal effect was evaluated according to the criteria of Test Example 1. This test was conducted in triplicate using 10 adults of Plutella xylostella per plot. Corrected mortality rate (%)=100×(Number of hatched larvae in a non-treatment plot−Number of hatched larvae in a treatment plot)/Number of hatched larvae in a non-treatment plot [Math. 3]

Laodelphax striatella = assay: Insecticidal test on Laodelphax striatella (rice seedling dip); settings: 500 ppm, rice seedlings (Nihonbare) dipped 30 seconds, ten 3rd-instar larvae, 8 days after inoculation; criteria of Test Example 1
From the text: Insecticidal Test on Laodelphax striatella
The oxime group-containing condensed heterocyclic compounds represented by the general formula (1) of the present invention or salts thereof were separately dispersed in water and diluted to 500 ppm, and rice plant seedlings (variety: Nihonbare) were dipped in the agrochemical dispersions for 30 seconds. After air-dried, each seedling was put into a separate glass test tube and inoculated with ten 3rd-instar larvae of Laodelphax striatella, and then the glass test tubes were capped with cotton plugs. At 8 days after the inoculation, the numbers of surviving larvae and dead larvae were counted, the corrected mortality rate was calculated according to the formula shown below, and the insecticidal effect was evaluated according to the criteria of Test Example 1. Corrected mortality rate (%)=100×(Survival rate in a non-treatment plot−Survival rate in a treatment plot)/Survival rate in a non-treatment plot [Math. 2]

Myzus persicae = assay: Test of control effect on Myzus persicae (foliar application to potted Chinese cabbage); settings: 500 ppm dispersion in water, foliar application to potted Chinese cabbage plants, green peach aphids counted at 6 days after application

Row | Structure (SMILES) | insecticidal effect (corrected mortality rate, hatched larvae) (Plutella xylostella) | insecticidal effect (corrected mortality rate) (Laodelphax striatella) | control effect (control rate) (Myzus persicae)
1 | CCS(=O)(=O)c1cc(/C=N/O)cnc1-c1nc2cc(C(F)(F)F)cnc2n1C [Compound 1-3] | A (the control rate is 100%.) | A (the control rate is 100%.) | A (the control rate is 100%.)
2 | CCS(=O)(=O)c1cc(/C=N/OCC(F)(F)F)cnc1-c1nc2cc(C(F)(F)F)cnc2n1C [Compound 1-60] | A (the control rate is 100%.) | A (the control rate is 100%.) | A (the control rate is 100%.)
3 | CCS(=O)(=O)c1cc(/C=N/OC)cnc1-c1nc2cc(C(F)(F)C(F)(F)F)cnc2n1C [Compound 1-192] | A (the control rate is 100%.) | A (the control rate is 100%.) | A (the control rate is 100%.)
4 | CCO/N=C/c1cnc(-c2nc3cc(C(F)(F)C(F)(F)F)cnc3n2C)c(S(=O)(=O)CC)c1 [Compound 1-195] | A (the control rate is 100%.) | A (the control rate is 100%.) | A (the control rate is 100%.)
5 | CCO/N=C\c1cnc(-c2nc3cc(C(F)(F)C(F)(F)F)cnc3n2C)c(S(=O)(=O)CC)c1 [Compound 1-198] | A (the control rate is 100%.) | A (the control rate is 100%.) | A (the control rate is 100%.)
6 | CCS(=O)(=O)c1ccc(C=NO)nc1-c1nc2cc(C(F)(F)F)nnc2n1C [Compound 3-1] | – | – | A (the control rate is 100%.)
7 | CCS(=O)(=O)c1ccc(/C=N/OCC(F)F)nc1-c1nc2cc(C(F)(F)F)nnc2n1C [Compound 3-3] | – | – | A (the control rate is 100%.)
8 | CCS(=O)(=O)c1ccc(/C=N/OCC(F)(F)C(F)(F)F)nc1-c1nc2cc(C(F)(F)F)nnc2n1C [Compound 3-4] | – | – | A (the control rate is 100%.)
9 | CCS(=O)(=O)c1ccc(/C=N/OCC(F)(F)C(F)F)nc1-c1nc2cc(C(F)(F)F)nnc2n1C [Compound 3-5] | – | – | A (the control rate is 100%.)
10 | CCS(=O)(=O)c1ccc(/C=N/O)nc1-c1nc2cc(C(F)(F)C(F)(F)F)nnc2n1C [Compound 3-11] | – | – | A (the control rate is 100%.)
11 | CCS(=O)(=O)c1ccc(/C=N/OCC(F)(F)F)nc1-c1nc2cc(C(F)(F)C(F)(F)F)nnc2n1C [Compound 3-12] | – | – | A (the control rate is 100%.)
12 | CCS(=O)(=O)c1ccc(/C=N/OCC(F)F)nc1-c1nc2cc(C(F)(F)C(F)(F)F)nnc2n1C [Compound 3-13] | – | – | A (the control rate is 100%.)
13 | CCS(=O)(=O)c1ccc(/C=N/O)nc1-c1nc2cc(SC(F)(F)F)ccc2o1 [Compound 5-15] | – | – | A (the control rate is 100%.)
14 | CCS(=O)(=O)c1ccc(/C=N/OCC(F)F)nc1-c1nc2cc(SC(F)(F)F)ccc2o1 [Compound 5-16] | – | – | A (the control rate is 100%.)
15 | CCS(=O)(=O)c1ccc(/C=N/OCC(F)(F)F)nc1-c1nc2cc(SC(F)(F)F)ccc2o1 [Compound 5-17] | – | – | A (the control rate is 100%.)
16 | CCS(=O)(=O)c1ccc(/C=N/OCC(F)(F)C(F)F)nc1-c1nc2cc(SC(F)(F)F)ccc2o1 [Compound 5-18] | – | – | A (the control rate is 100%.)
17 | CCS(=O)(=O)c1ccc(/C=N/OCC(F)(F)C(F)(F)F)nc1-c1nc2cc(SC(F)(F)F)ccc2o1 [Compound 5-19] | – | – | A (the control rate is 100%.)
18 | CCS(=O)(=O)c1ccc(/C=N/OCC(F)F)nc1-c1nc2cc(S(=O)(=O)C(F)(F)F)ccc2o1 [Compound 5-93] | – | – | A (the control rate is 100%.)

— patent US11787809B2 (NIHON NOHYAKU CO., LTD., priority 2015, dated 2023)
